Measured values from paper PMC3479092, “Tsetse Salivary Gland Proteins 1 and 2 Are High Affinity Nucleic Acid Binding Proteins with Residual Nuclease Activity”.

Molecular target: T1, Tsal1 (Glossina morsitans morsitans) (UniProt D3TS87)
T1 sequence (looked up, limits assumed): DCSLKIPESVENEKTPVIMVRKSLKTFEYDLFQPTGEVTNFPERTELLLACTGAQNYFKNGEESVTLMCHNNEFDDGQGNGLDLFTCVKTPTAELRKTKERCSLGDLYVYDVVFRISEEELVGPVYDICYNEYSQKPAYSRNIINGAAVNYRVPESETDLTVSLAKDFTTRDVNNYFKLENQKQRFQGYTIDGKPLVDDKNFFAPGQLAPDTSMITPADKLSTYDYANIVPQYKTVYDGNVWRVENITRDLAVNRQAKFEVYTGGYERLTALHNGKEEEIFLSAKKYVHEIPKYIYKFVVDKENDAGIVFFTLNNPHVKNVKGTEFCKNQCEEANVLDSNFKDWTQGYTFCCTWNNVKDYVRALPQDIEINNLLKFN
Assay: SPR
Details: ka 3.2E+04, kd 2.0E-03; SPR (BIAcore), 50 mM sodium acetate pH 4.0, 150 mM NaCl, 3.5 mM EDTA, 0.005% Tween-20, 30 ul/min, Langmuir 1:1 fit; temperature not stated; recombinant protein; protein details: pelB leader (pET22b), His tag implied by Ni-NTA; single-stranded DNA

CACTAGGTCTGATCAGGCAACGTTG [ssDNA 25nt A/T/G/C mixed]
pKd: 7.19

pKd: −log10 of the molar value. The exact form of at least one protein or probe is not confirmed. Protein sequences can lack the tags named with them.
